Results are given in words; binding and its absence hold for the method and conditions named. Binding seen in cells or lysates may run through a third protein. A result given as binding can be weak or reduced; the word gives no strength.
How the values were obtained:
[1] = target: 549-ClC2 (FLAG-tagged ClCN2 truncated to remove the entire c-tail) (UniProt P51788); experiment: co-IP; FLAG-tagged wild-type or truncated ClCN2 immunoprecipitated with 1.5 μg FLAG antibody and protein A/G sepharose beads from transfected polarized CFBE cell lysates, blot for endogenous ENaCγ; normalised to the FLAG pulldown
[2] = target: 790-ClC2 (FLAG-tagged ClCN2 truncated to remove the CBS2 domain) (UniProt P51788); experiment: as above

Protein sequences, listed by entry. Tags and fused reporters are not part of them. Lines headed by an entry give the natural chain unless they say otherwise; changes in a name come on top.
UniProt P51788: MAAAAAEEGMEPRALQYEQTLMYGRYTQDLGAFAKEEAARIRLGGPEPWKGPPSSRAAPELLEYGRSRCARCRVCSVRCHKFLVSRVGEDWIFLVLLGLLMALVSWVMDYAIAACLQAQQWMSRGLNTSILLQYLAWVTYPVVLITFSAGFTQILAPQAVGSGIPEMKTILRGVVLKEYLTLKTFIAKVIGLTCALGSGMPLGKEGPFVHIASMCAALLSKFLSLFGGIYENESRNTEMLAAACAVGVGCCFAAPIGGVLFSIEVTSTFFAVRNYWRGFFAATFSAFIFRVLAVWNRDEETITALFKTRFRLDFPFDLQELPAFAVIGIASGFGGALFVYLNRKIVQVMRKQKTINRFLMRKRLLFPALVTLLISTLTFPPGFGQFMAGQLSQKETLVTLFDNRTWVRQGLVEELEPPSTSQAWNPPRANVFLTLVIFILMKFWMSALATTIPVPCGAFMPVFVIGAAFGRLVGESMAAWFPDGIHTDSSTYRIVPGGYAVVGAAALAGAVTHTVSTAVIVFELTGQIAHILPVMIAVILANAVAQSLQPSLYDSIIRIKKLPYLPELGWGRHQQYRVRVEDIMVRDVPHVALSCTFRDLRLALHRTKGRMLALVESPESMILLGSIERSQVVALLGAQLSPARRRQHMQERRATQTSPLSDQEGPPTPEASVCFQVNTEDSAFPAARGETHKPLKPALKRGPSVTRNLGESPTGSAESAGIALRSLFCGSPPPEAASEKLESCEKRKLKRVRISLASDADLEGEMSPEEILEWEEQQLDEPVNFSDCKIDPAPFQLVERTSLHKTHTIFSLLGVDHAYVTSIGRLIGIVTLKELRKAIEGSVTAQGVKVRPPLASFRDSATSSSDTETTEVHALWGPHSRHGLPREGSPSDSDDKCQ

- binding [1]: binds
- binding [2]: binds
B1: epithelial sodium channel gamma subunit (ENaCγ), endogenous (protein, UniProt P51170 1-649)
chain: MAPGEKIKAKIKKNLPVTGPQAPTIKELMRWYCLNTNTHGCRRIVVSRGRLRRLLWIGFTLTAVALILWQCALLVFSFYTVSVSIKVHFRKLDFPAVTICNINPYKYSTVRHLLADLEQETREALKSLYGFPESRKRREAESWNSVSEGKQPRFSHRIPLLIFDQDEKGKARDFFTGRKRKVGGSIIHKASNVMHIESKQVVGFQLCSNDTSDCATYTFSSGINAIQEWYKLHYMNIMAQVPLEKKINMSYSAEELLVTCFFDGVSCDARNFTLFHHPMHGNCYTFNNRENETILSTSMGGSEYGLQVILYINEEEYNPFLVSSTGAKVIIHRQDEYPFVEDVGTEIETAMVTSIGMHLTESFKLSEPYSQCTEDGSDVPIRNIYNAAYSLQICLHSCFQTKMVEKCGCAQYSQPLPPAANYCNYQQHPNWMYCYYQLHRAFVQEELGCQSVCKEACSFKEWTLTTSLAQWPSVVSEKWLLPVLTWDQGRQVNKKLNKTDLAKLLIFYKDLNQRSIMESPANSIEMLLSNFGGQLGLWMSCSVVCVIEIIEVFFIDFFSIIARRQWQKAKEWWAWKQAPPCPEAPRSPQGQDNPALDIDDDLPTFNSALHLPPALGTQVPGTPPPKYNTLRLERAFSNQLTDTQMLDEL

Reference: article PMC4387756
